From patent publication US11266714B2 (NoNO Inc., priority 2014, dated 2022)
Where a sequence shows no end group, the ends are not given.

Assay: peptide synthesis
Conditions: purification step, chloride salt

## YGRKKRRQRRRKLSSIESDV
210 nm
  final HPLC purity: 99.01%
  step yield: 78%
